Experimental data taken from patent US20170306005A1 (NASCIENT, published 2017).
Residue numbers refer to the chain shown, from its start. Numbers in names are those of the source. No constants are given. Whether binding was seen depends on the method and setting. Some entries that bind do so weakly or less than the wild type. Where a sequence is shown, tags or fusion partners need not be part of it. One block for each binder: values may come before it.

Assays:
[1] = target: T1, mouse tenascin-C rCd4-His-FBG (rat; mouse, UniProt P05540 207-392, limits assumed); assay: ELISA and HTRF screens, scFv
T1 construct: domain: domains 3 and 4; C-terminal FBG fusion; biotinylated in the ELISA screen; also called Mu TNC; mouse TNC rCd4-His-FBG; not shown: 6His tag
T1 sequence (chain (part 1 of 2)): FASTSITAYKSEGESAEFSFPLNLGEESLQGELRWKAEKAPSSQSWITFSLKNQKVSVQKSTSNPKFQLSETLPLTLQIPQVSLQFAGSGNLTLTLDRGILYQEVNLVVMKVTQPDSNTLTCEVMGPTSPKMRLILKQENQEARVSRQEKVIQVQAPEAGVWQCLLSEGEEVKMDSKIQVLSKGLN
T1 sequence (chain (part 2 of 2)): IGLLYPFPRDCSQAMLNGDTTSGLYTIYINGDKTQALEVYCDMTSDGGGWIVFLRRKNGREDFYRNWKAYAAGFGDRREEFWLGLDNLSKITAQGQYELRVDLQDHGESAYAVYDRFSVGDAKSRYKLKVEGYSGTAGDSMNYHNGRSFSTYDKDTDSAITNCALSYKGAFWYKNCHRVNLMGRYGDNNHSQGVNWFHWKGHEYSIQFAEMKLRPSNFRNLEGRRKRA

[2] = target: T2, human tenascin-C rCd4-His-FBG (rat; human, UniProt P05540 207-392, limits assumed); assay: ELISA and HTRF screens, scFv
T2 construct: domain: domains 3 and 4; C-terminal FBG fusion; biotinylated in the ELISA and HTRF screens; also called Hu TNC; human TNC rCd4-His-FBG; not shown: 6His tag
T2 sequence (chain (part 1 of 2)): T1 sequence (chain (part 1 of 2))
T2 sequence (chain (part 2 of 2)): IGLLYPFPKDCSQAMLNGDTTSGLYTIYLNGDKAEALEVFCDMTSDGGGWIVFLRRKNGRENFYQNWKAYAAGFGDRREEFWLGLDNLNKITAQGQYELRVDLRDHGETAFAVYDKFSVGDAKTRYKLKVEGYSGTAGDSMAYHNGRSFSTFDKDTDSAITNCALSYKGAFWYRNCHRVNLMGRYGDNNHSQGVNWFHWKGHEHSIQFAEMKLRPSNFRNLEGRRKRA

[3] = target: T1, mouse tenascin-C rCd4-His-FBG; assay: SPR, captured purified IgG4, 37 C
Description: Detailed kinetic parameters were evaluated for the 9 prioritised IgG4 antibodies. Binding characteristics were determined for interaction with human, rat and dog TNC rCD4-His-FBG, and human TNR rCD4-His-FBG. Kinetic assays followed essentially the same protocols as for the off-rate determinations described above, with some modifications as follows. […] Purified anti-FBG IgG4 was diluted to a concentration of 3.5 nM in PBS, pH 7.4, 0.05% Tween-20 and injected into FC2 at a flow rate of 10 μl/min, 60 s contact time. […] Antigens were prepared by doubling dilution in PBS, pH 7.4, 0.05% Tween-20 (highest concentration 100 nM except mouse rCD4-His-FBG which was 7 nM). Assays were performed at 37° C. (30 μl/min, 120 s contact time; mouse rCD4-His-FBGFBG 10 μl/min, 60 s contact time), with both the flow cell and injection chamber equilibrated to this temperature. As before, kinetic parameters were determined by reference cell subtraction and fitting the sensogram experimental data assuming a 1:1 interaction using BIAevaluation software (GE, BR-1005-97).

B1: 160_01_A4 scFv (scFv, V domains shown, not shown: small tags and cut ends)
VH: EVRLVQSGAEVKKPGASVKVSCKVSGYTLTELSMHWVRQAPGKGLEWMGGFDPEDGETIYAQKFQGRVTMTEDTSTDTAYMELSSLRSEDTAVYYCATAQKETLGNAIWGQGTLVTVSS
VL: DIQMTQSPASLPTSVGDRVTITCRASQYIQGFLNWYQQKPGKAPRLLIYAASTLQDGVPSRFSGSGYGTDFTLTISSLQPEDFATYYCQQSYSTPWTFGQGTKVEIK
notes: E. coli supernatant scFv
binding [1]: binds | binding [2]: binds

B2: 160_01_G2 scFv (scFv, V domains shown, not shown: small tags and cut ends)
VH: B1 VH with A99Y, Q100T, K101L, E102D, T103N, L104M, G105A, N106L, A107T, I108Y
VL: B1 VL
notes: E. coli supernatant scFv
binding [1]: binds | binding [2]: binds

B3: 160_01_F1 scFv (scFv, V domains shown, not shown: small tags and cut ends)
VH: B1 VH with K101S, E102P, T103W, L104S, N106M, A107T, I108Y
VL: B1 VL
notes: E. coli supernatant scFv
binding [1]: binds | binding [2]: binds

B6: 161_01_A12 scFv (scFv, V domains shown, not shown: small tags and cut ends)
VH: B1 VH with K101P, E102T, T103A, G105A, A107T, I108Y
VL: B1 VL
notes: E. coli supernatant scFv
binding [1]: binds | binding [2]: binds

B7: 161_01_C09 scFv (scFv, V domains shown, not shown: small tags and cut ends)
VH: B1 VH with K101L, E102P, T103Y, G105A, N106Q, A107T, I108Y
VL: B1 VL
notes: E. coli supernatant scFv
binding [1]: binds | binding [2]: binds

B8: 162_02_D3 scFv (scFv, V domains shown, not shown: small tags and cut ends)
VH: B1 VH with K101I, E102H, T103P, N106L, A107T, I108Y
VL: B1 VL
notes: E. coli supernatant scFv
binding [1]: binds | binding [2]: binds

B9: 161_01_C11 scFv (scFv, V domains shown, not shown: small tags and cut ends)
VH: B1 VH with T103W, G105P, N106D, A107V, I108T
VL: B1 VL
notes: E. coli supernatant scFv
binding [1]: binds | binding [2]: binds

B12: 165_13_D1 scFv (scFv, V domains shown, not shown: small tags and cut ends)
VH: QVQLVESGGGLVQPGRSLRLSCAASGFTFDDYAMHWVRQAPGKGLEWVSGISGSGGSTYYADSVKGRFTISRDNAKNSLYLQMNSLRAEDTALYYCAKGTRGEGDTFDIWGQGTMVTVSS
VL: B1 VL with S14P, R45K, A50D, T53N, Q55E, D56T, Y67S, W96Q, E105D
notes: E. coli supernatant scFv
binding [1]: binds | binding [2]: binds

B14: 162_02_D3 human IgG4 (antibody, V domains shown)
VH: B1 VH with K101I, E102H, T103P, N106L, A107T, I108Y
VL: DIQMTQSPASLPTSVGDRVTITCRASQYIQGFLNWYQQKPGKAPRLLIYAASTLQDGVPSRFSGSGYGTDFTLTISSLQPEDFATYYCQQSYSTPWTFGQGTKVEIKR
notes: human IgG4 with hinge S241P; also called Antibody 162 02 D3 (derived from 2A5)
binding [3]: binds

B15: 165_13_B1 scFv (scFv, V domains shown, not shown: small tags and cut ends)
VH: B12 VH with G99V, T100M, R101S, G102S, E103M, G104E, T106A
VL: B1 VL with S14P, R45K, A50D, T53N, Q55E, D56T, Y67S, W96Q, E105D
notes: E. coli supernatant scFv
binding [1]: binds | binding [2]: binds

Next, values leading:

binding [1]: binds | binding [2]: binds
B4: 161_01_F6 scFv (scFv, V domains shown, not shown: small tags and cut ends)
VH: B1 VH with T103N, L104I, G105A, A107R, I108H
VL: B1 VL
notes: E. coli supernatant scFv; also called 160_01_F6

binding [1]: binds | binding [2]: binds
B5: 160_01_H4 scFv (scFv, V domains shown, not shown: small tags and cut ends)
VH: B1 VH with A99G, Q100R, K101F, E102V, T103W, L104E, G105A, N106L, A107T, I108Y
VL: B1 VL
notes: E. coli supernatant scFv

binding [1]: binds | binding [2]: binds
B10: 161_01_H10 scFv (scFv, V domains shown, not shown: small tags and cut ends)
VH: B1 VH with K101P, E102V, T103W, L104A, G105P, N106G, A107T, I108Y
VL: B1 VL
notes: E. coli supernatant scFv

binding [3]: binds
B11: 165_13_D1 human IgG4 (antibody, V domains shown)
VH: B12 VH
VL: B14 VL with S14P, R45K, A50D, T53N, Q55E, D56T, Y67S, W96Q, E105D
notes: human IgG4 with hinge S241P

binding [3]: binds
B13: 161_01_H10 human IgG4 (antibody, V domains shown)
VH: B1 VH with K101P, E102V, T103W, L104A, G105P, N106G, A107T, I108Y
VL: B14 VL
notes: human IgG4 with hinge S241P; also called Antibody 161 01 H10 (derived from 2A5)

binding [1]: binds | binding [2]: binds
B16: 165_13_B6 scFv (scFv, V domains shown, not shown: small tags and cut ends)
VH: B12 VH with T100Q, R101K
VL: B1 VL with S14P, R45K, A50D, T53N, Q55E, D56T, Y67S, W96Q, E105D
notes: E. coli supernatant scFv
